# PubChem BioAssay AID720630 (Broad Institute, 2013)
# The list shows a part of the results. Further columns of the screen follow, without active or inactive calls. Compounds called inactive in the main read-out are mostly missing here.
# Assay: HUVEC apoptotic caspase activation, HRAS target ID – cell-based, multiple timepoints, luminescence, dry powder, mechanism study for HRAS target identification, dose response (AID 720630)
# Conditions: HUVEC apoptosis, caspase-3/7 luminescence, measured here: max caspase activation timepoint 1, at 35 µM, test 1, stronger effect = higher value
row,Compound,max activity [%]
1,COc1ccc(N(C(=O)CCl)C(C(=O)NCCc2ccccc2)c2cccs2)cc1Cl (stereo not drawn),156
2,CO[C@H]1C[C@@H]2CC[C@@H](C)[C@@](O)(O2)C(=O)C(=O)N2CCCC[C@H]2C(=O)O[C@H]([C@H](C)C[C@@H]2CC[C@@H](O)[C@H](OC)C2)CC(=O)[C@H](C)/C=C(\C)[C@@H](O)[C@@H](OC)C(=O)[C@H](C)C[C@H](C)/C=C/C=C/C=C/1C,22.2
3,C#CCCCC(=O)NCCOCCOCCOc1ccc(N(C(=O)CCl)C(C(=O)NCCc2ccccc2)c2cccs2)cc1Cl (stereo not drawn),50.7

# Same assay, conditions: HUVEC apoptosis, caspase-3/7 luminescence, measured here: max caspase activation timepoint 3, at 35 µM, test 3, stronger effect = higher value
row,Compound,max activity [%]
1,CC(C)(C)OC(=O)NCCOCCOCCOc1ccc(N(C(=O)CCl)C(C(=O)NCCc2ccccc2)c2cccs2)cc1Cl (stereo not drawn),280
2,CO[C@H]1C[C@@H]2CC[C@@H](C)[C@@](O)(O2)C(=O)C(=O)N2CCCC[C@H]2C(=O)O[C@H]([C@H](C)C[C@@H]2CC[C@@H](O)[C@H](OC)C2)CC(=O)[C@H](C)/C=C(\C)[C@@H](O)[C@@H](OC)C(=O)[C@H](C)C[C@H](C)/C=C/C=C/C=C/1C,92.7
3,Cc1onc(C(=O)N2CCN(C(c3ccc(Cl)cc3)c3ccc(OCCOCCOCCNC(=O)OC(C)(C)C)cc3)CC2)c1[N+](=O)[O-] (stereo not drawn),54.3
4,C#CCCCC(=O)NCCOCCOCCOc1ccc(N(C(=O)CCl)C(C(=O)NCCc2ccccc2)c2cccs2)cc1Cl (stereo not drawn),290
5,O=C(NCCOCCOCCOc1ccc(N(C(=O)CCl)C(C(=O)NCCc2ccccc2)c2cccs2)cc1Cl)c1ccc(COC2C#CCCCCC2)cc1 (stereo not drawn),88.9
